The assay relates to CD8F1 mice, subcutaneous mammary adenocarcinoma, T/C%. Description: NCI In Vivo Anticancer Drug Screen. Data for tumor model Mammary Adenocarcinoma CD8F1 (subcutaneous) in CD8F1. The conditions noted are these: higher T/C = larger tumour. As for the experimental part:
The antitumor activity of compounds was measured in mice bearing transplantable tumors. Survival or tumor size were measured and the results are expressed as the measurement made in the treated group (T) divided by the measurement made in the vehicle treated control group (C). The tumor model used in this assay is Mammary Adenocarcinoma CD8F1 (subcutaneous) in CD8F1

[1] abbreviates: T/C endpoint: median tumor weight (est.), dose: 25.0 mg/kg/injection, schedule: Q07DX005 (ip), vehicle: saline with Tween-80, evaluated on day 30.
The mark [2] stands for this setting: T/C endpoint: median tumor weight change, dose: 1000.0 mg/kg/injection, schedule: Q01DX001 (ip), vehicle: Klucel (hydroxypropylcellulose) (HPC).

The list does not hold the whole screen: it is rich in T/C values a quarter to a half above the control, in often repeated tests (any T/C) and in doses without a T/C. Further doses and runs are listed elsewhere. T/C is the treated group as % of the vehicle group. Schedules are NCI's codes, read here as Q, the interval in days (D) or hours (H), X, the number of doses. Some T/C values are followed by the survivors on the day toxicity was checked, most often the fifth; without a count, all were alive then. Some doses have a count of surviving animals in place of a T/C: the source files T/C as zero there, which appears to mark a toxic dose or a test without result, not a measured value. Counts of survivors are from the toxicity check (mostly the fifth day) where no day follows; animals may have died later. Some doses were run more than once; their values stand side by side, smallest first.

Regarding `C=C1C(=O)C23[C@H](O)C1CC[C@H]2[C@]12COC3(O)[C@@H](O)[C@@H]1C(C)(C)CC[C@@H]2O`, the survivor count reads like this: (T/C endpoint: median tumor weight (est.), dose: 35.0 mg/kg/injection, schedule: Q07DX005 (ip), vehicle: Klucel (hydroxypropylcellulose) (HPC)) 5 of 10 on day 30; (T/C endpoint: median tumor weight (est.), dose: 70.0 mg/kg/injection, schedule: Q07DX005 (ip), vehicle: Klucel (hydroxypropylcellulose) (HPC)) 0 of 10 on day 30; (T/C endpoint: median tumor weight change, dose: 62.5 mg/kg/injection, schedule: Q01DX001 (ip), vehicle: saline with Tween-80) 0 of 10 on day 30; (T/C endpoint: median tumor weight change, dose: 125.0 mg/kg/injection, schedule: Q01DX001 (ip), vehicle: saline with Tween-80) 0 of 10 on day 30.
As to `Cc1ccccc1N(CC1CO1)CC1CO1` (stereo unspecified), the survivor count reads like this: (T/C endpoint: median tumor weight (est.), dose: 25.0 mg/kg/injection, schedule: Q07DX005 (ip), vehicle: saline) 4 of 10 on day 30; (T/C endpoint: median tumor weight (est.), dose: 800.0 mg/kg/injection, schedule: Q07DX005 (ip), vehicle: saline) 5 of 10 on day 30.
`[N-]=[N+]=CC(=O)CCC(N)C(=O)O` (stereo unspecified): where the note is “T/C endpoint: median tumor weight (est.), dose: 200.0 mg/kg/injection, schedule: Q01DX001 (ip), vehicle: saline”, the survivor count was 5 of 10 on day 33.
In the case of `Cc1c2cc[n+](CCN3CCCCC3)cc2c(C)c2c1[nH]c1ccc(O)cc12`, the T/C by setting is: (T/C endpoint: median tumor weight change, dose: 31.25 mg/kg/injection, schedule: Q01DX001 (ip), vehicle: suspension in saline, evaluated on day 25) 76 % of control; (T/C endpoint: median tumor weight change, dose: 31.25 mg/kg/injection, schedule: Q01DX001 (ip), vehicle: suspension in saline, evaluated on day 28) 55 % of control; (T/C endpoint: median tumor weight change, dose: 31.25 mg/kg/injection, schedule: Q01DX001 (ip), vehicle: suspension in saline, evaluated on day 36) 50 % of control; (T/C endpoint: median tumor weight change, dose: 31.25 mg/kg/injection, schedule: Q01DX001 (ip), vehicle: suspension in saline, evaluated on day 43) 75 % of control; (T/C endpoint: median tumor weight change, dose: 62.5 mg/kg/injection, schedule: Q01DX001 (ip), vehicle: suspension in saline, evaluated on day 25) 18 % of control [9 of 10 alive on day 25]; (T/C endpoint: median tumor weight change, dose: 62.5 mg/kg/injection, schedule: Q01DX001 (ip), vehicle: suspension in saline, evaluated on day 28) 49 % of control. The T/C is 5 % of control [8 of 10 alive on day 36] (T/C endpoint: median tumor weight change, dose: 62.5 mg/kg/injection, schedule: Q01DX001 (ip), vehicle: suspension in saline, evaluated on day 36) and 42 % of control (T/C endpoint: median tumor weight change, dose: 62.5 mg/kg/injection, schedule: Q01DX001 (ip), vehicle: suspension in saline, evaluated on day 43). For the same compound, the survivor count is listed as 0 of 10 on day 36, 0 of 10 on day 43, 1 of 10 on day 25, 5 of 10 on day 28 (T/C endpoint: median tumor weight change, dose: 125.0 mg/kg/injection, schedule: Q01DX001 (ip), vehicle: suspension in saline) and 0 of 10 on day 25 (T/C endpoint: median tumor weight change, dose: 250.0 mg/kg/injection, schedule: Q01DX001 (ip), vehicle: suspension in saline).
For the compound `CS(=O)(=O)OCCN(CCOS(C)(=O)=O)c1ccc(C=O)cc1`, the T/C is 147 % of control (T/C endpoint: median tumor weight (est.), dose: 6.25 mg/kg/injection, schedule: Q07DX005 (ip), vehicle: saline with Tween-80, evaluated on day 30) and 132 % of control under setting [1]. In addition, the survivor count reads like this: (T/C endpoint: median tumor weight (est.), dose: 100.0 mg/kg/injection, schedule: Q07DX005 (ip), vehicle: saline with Tween-80) 3 of 10 on day 30 and 6 of 10 on day 30; (T/C endpoint: median tumor weight (est.), dose: 200.0 mg/kg/injection, schedule: Q07DX005 (ip), vehicle: saline with Tween-80) 0 of 10 on day 30.
In the case of `Nc1c(Cl)c(Cl)nc(C(=O)O)c1Cl`, the T/C is, setting by setting: (T/C endpoint: mean tumor weight, dose: 50.0 mg/kg/injection, schedule: Q07DX007 (ip), vehicle: saline, evaluated on day 44) 144 % of control [8 of 10 alive]; (T/C endpoint: mean tumor weight, dose: 100.0 mg/kg/injection, schedule: Q07DX006 (ip), vehicle: saline, evaluated on day 35) 135 % of control; (T/C endpoint: mean tumor weight, dose: 100.0 mg/kg/injection, schedule: Q07DX007 (ip), vehicle: saline, evaluated on day 44) 143 % of control [9 of 10 alive].
With `CC1CN=C(c2ccc(NC(=O)c3ccc(C(=O)Nc4ccc(C5=NCC(C)N5)cc4)cc3)cc2)N1` (stereo unspecified), the T/C was 136 % of control (T/C endpoint: median tumor weight (est.), dose: 12.5 mg/kg/injection, schedule: Q07DX005 (ip), vehicle: Klucel (hydroxypropylcellulose) (HPC), evaluated on day 30) and 130 % of control (T/C endpoint: median tumor weight (est.), dose: 25.0 mg/kg/injection, schedule: Q07DX005 (ip), vehicle: Klucel (hydroxypropylcellulose) (HPC), evaluated on day 30).
On to `Nc1ncnc2c1ccn2C1OC(CO)C(O)C1O` (stereo unspecified), for which the T/C runs as follows: (T/C endpoint: mean tumor weight, dose: 2.0 mg/kg/injection, schedule: Q07DX005 (ip), vehicle: saline, evaluated on day 36) 130 % of control; (T/C endpoint: median tumor weight (est.), dose: 0.5 mg/kg/injection, schedule: Q07DX005 (ip), vehicle: Klucel (hydroxypropylcellulose) (HPC), evaluated on day 30) 149 % of control. Besides, for the setting “T/C endpoint: median tumor weight (est.), dose: 16.0 mg/kg/injection, schedule: Q07DX005 (ip), vehicle: Klucel (hydroxypropylcellulose) (HPC)”, the survivor count is on record as 0 of 10 on day 30.
As for `O=S(=O)(CCl)OCCCl`, the survivor count reads like this: (T/C endpoint: median tumor weight change, dose: 500.0 mg/kg/injection, schedule: Q01DX001 (ip), vehicle: saline with Tween-80) 6 of 10 on day 32; (T/C endpoint: median tumor weight change, dose: 1000.0 mg/kg/injection, schedule: Q01DX001 (ip), vehicle: saline with Tween-80) 1 of 10 on day 32.
Take `CCN(CC)c1ccc2cc(-c3nc4ccccc4n3C)c(=O)oc2c1`: the survivor count is, setting by setting: (T/C endpoint: median tumor weight (est.), dose: 50.0 mg/kg/injection, schedule: Q07DX005 (ip), vehicle: Klucel (hydroxypropylcellulose) (HPC)) 0 of 10 on day 30; (T/C endpoint: median tumor weight (est.), dose: 100.0 mg/kg/injection, schedule: Q07DX005 (ip), vehicle: Klucel (hydroxypropylcellulose) (HPC)) 0 of 10 on day 30; (T/C endpoint: median tumor weight (est.), dose: 200.0 mg/kg/injection, schedule: Q07DX005 (ip), vehicle: Klucel (hydroxypropylcellulose) (HPC)) 0 of 10 on day 30; (T/C endpoint: median tumor weight (est.), dose: 400.0 mg/kg/injection, schedule: Q07DX005 (ip), vehicle: Klucel (hydroxypropylcellulose) (HPC)) 0 of 10 on day 30; under setting [2], 0 of 10 on day 33; (T/C endpoint: median tumor weight change, dose: 2000.0 mg/kg/injection, schedule: Q01DX001 (ip), vehicle: Klucel (hydroxypropylcellulose) (HPC)) 0 of 10 on day 33.
In the case of `COc1cccc2c1C(=O)c1c(O)c3c(c(O)c1C2=O)C[C@@](O)(/C(CO)=N/NC(=O)c1ccc(Cl)c(Cl)c1)C[C@@H]3OC1CC(N)C(O)C(C)O1` (stereo partly specified), the T/C is 125 % of control [9 of 10 alive] (T/C endpoint: mean tumor weight, dose: 0.75 mg/kg/injection, schedule: Q07DX006 (ip), vehicle: saline, evaluated on day 41) and 132 % of control (T/C endpoint: mean tumor weight, dose: 6.0 mg/kg/injection, schedule: Q07DX006 (ip), vehicle: saline, evaluated on day 41). For the same compound, the survivor count is 6 of 10 (T/C endpoint: mean tumor weight, dose: 6.0 mg/kg/injection, schedule: Q07DX005 (ip), vehicle: saline) and 3 of 10 on day 30 (T/C endpoint: median tumor weight (est.), dose: 64.0 mg/kg/injection, schedule: Q07DX005 (ip), vehicle: suspension in saline).
Regarding `CC1=C(C)C(=O)O[C@@H]([C@](C)(O)[C@]2(O)CC[C@@]3(O)[C@@H]4C[C@H]5O[C@]56CC=CC(=O)[C@]6(C)[C@H]4CC[C@]23C)C1`, the T/C (T/C endpoint: median tumor weight change, dose: 100.0 mg/kg/injection, schedule: Q01DX001 (ip), vehicle: saline, evaluated on day 32) is 145 % of control. Also, the survivor count (T/C endpoint: median tumor weight change, dose: 800.0 mg/kg/injection, schedule: Q01DX001 (ip), vehicle: saline) is listed as 3 of 10 on day 32.
For `O=C1c2c(O)ccc(O)c2C(=O)c2c(NCCNCCO)ccc(NCCNCCO)c21`, the T/C (T/C endpoint: median tumor weight (est.), dose: 2.0 mg/kg/injection, schedule: Q07DX005 (ip), vehicle: water, evaluated on day 30) was 127 % of control. Besides, under “T/C endpoint: median tumor weight (est.), dose: 4.0 mg/kg/injection, schedule: Q07DX005 (ip), vehicle: water”, the survivor count is reported as 0 of 10 on day 30.
For the compound `CN(CO)c1nc(N(C)CO)nc(N(C)CO)n1`, the T/C was 145 % of control (T/C endpoint: median tumor weight (est.), dose: 6.25 mg/kg/injection, schedule: Q07DX006 (ip), vehicle: saline, evaluated on day 37) and 127 % of control under setting [1].
For the compound `Cc1c2ccc3ccccc3c2c[n+]2ccccc12`, the survivor count is given as 4 of 10 on day 30 (T/C endpoint: median tumor weight (est.), dose: 40.0 mg/kg/injection, schedule: Q07DX005 (ip), vehicle: Klucel (hydroxypropylcellulose) (HPC)) and 0 of 10 on day 30 (T/C endpoint: median tumor weight (est.), dose: 80.0 mg/kg/injection, schedule: Q07DX005 (ip), vehicle: Klucel (hydroxypropylcellulose) (HPC)).
Regarding `O=c1nc(-c2ccco2)sc(=O)[nH]1`, the survivor count reads like this: (T/C endpoint: median tumor weight change, dose: 500.0 mg/kg/injection, schedule: Q01DX001 (ip), vehicle: Klucel (hydroxypropylcellulose) (HPC)) 0 of 10 on day 28; under setting [2], 0 of 10 on day 28.

The values above are taken from PubChem BioAssay AID220 (DTP/NCI, 2004).
